# From PubChem BioAssay AID504444 (National Center for Advancing Translational Sciences (NCATS), 2011)
# Screen size: about 360,000 compounds; about 7,500 (2.1%) were called active. The inconclusive results got no clear call from the source; some entries with a clear call stand among them for comparison. Calls come from the whole dose curve; as a rule, active = well fitted inhibition curve with a large enough effect; inconclusive = small, poorly fitted or top-dose-only effect, or effect the other way; inactive = flat fitted curve, though single readings scatter. Where the call is inconclusive, the potency comes from a doubtful curve fit.
# Assay: Nrf2 qHTS screen for inhibitors; note: nearly all actives have a fitted effect of over 60% in size
# Conditions: A549 ARE-Fluc reporter, luciferase luminescence, 18-24 h; series mostly up to 46 µM
# How it was run: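 Nrf2 activity is the BugLite luminescence, read 15 min after reagent at room temperature, following CellTiter-Fluor cytotoxicity readout (30 min, 37C). Compound titrations were applied for 18-24 h to 5000 A549 ARE_Fluc cells/well in 5% FBS OPTI-MEM.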
# Potency is the fitted concentration of half-maximal effect.
row,SMILES,Potency
1,CCC1Nc2ncnc(N3CCN(c4ccccn4)CC3)c2N(Cc2ccc(Br)cc2)C1=O (configuration not stated),"inconclusive: 29.1 µM [falling, single point]"
2,CCCC12CN3CC(C)(CN(C1)C3c1c(C)[nH]c(=O)[nH]c1=O)C2=O (configuration not stated),inactive
3,CCN(CCO)c1ccc(N=Cc2c(O)n(C)c(=S)[nH]c2=O)cc1,"inconclusive: 0.0411 µM [falling, full curve, poor fit]"
4,CCCCn1c(CN2CCN(c3ccc(F)cc3)CC2)nc2c1c(=O)n(C)c(=O)n2C,"inconclusive: 2.91 µM [falling, full curve]"
5,Cc1cccc(NC(=O)c2cnc3sccn3c2=O)n1,"inconclusive: 13 µM [activator, partial curve]"
6,CN1CCN(c2ccc([N+](=O)[O-])c(Sc3nncn3C)c2)CC1,"inconclusive: 5.17 µM [falling, full curve, poor fit]"
7,CCC1(C)OC(c2ccccc2)=C/C(=C/C=C2C(=O)NC(=O)NC2=O)O1 (configuration not stated),"inconclusive: 18.4 µM [falling, single point]"
8,COc1ccc(CCNC(=O)COC(=O)Cc2ccccc2)cc1,inactive
9,CCCc1nc2ccc(Br)cc2c(=O)n1-c1ccc([N+](=O)[O-])c(C(F)(F)F)c1,active: 20.6 µM
10,Cc1nc(Cl)sc1C(=O)Nc1ccc2ccccc2c1,"inconclusive: 23.1 µM [activator, single point]"
11,CN1/C(=C\C=C2C(=O)NC(=S)NC2=O)C(C)(C)c2ccccc21,"inconclusive: 20.6 µM [falling, single point]"
12,CC1OC(OC2C(O)CC(OC3C(O)CC(OC4CCC5(C)C(CCC6C5CCC5(C)C(C7=CC(=O)OC7)C(O)CC65O)C4)OC3C)OC2C)CC(O)C1O (configuration not stated),active: 0.092 µM
13,O=C(Nc1ccncc1)c1cccn(Cc2ccccc2)c1=O,"inconclusive: 14.6 µM [falling, single point]"
14,c1ccc(-c2nn(-c3ccccc3)[n+](-c3ccccc3)n2)cc1,active: 20.6 µM
15,COc1ccc(-c2ccc3n2Cc2cnnn2-c2ccccc2-3)cc1,"inconclusive: 23.1 µM [activator, single point]"
16,CCOc1ccc(S(=O)(=O)N(CC(=O)NCCc2ccc(OC)c(OC)c2)c2ccccc2)cc1,"inconclusive: 7.31 µM [falling, partial curve]"
17,Cc1ccc(C)c(N2CCN(S(=O)(=O)c3ccc4c(c3)oc(=O)n4C)CC2)c1,"inconclusive: 20.6 µM [falling, partial curve, poor fit]"
18,COc1ccc(Cc2nccc3cc(OC)c(OC)cc23)cc1OC,active: 14.6 µM
19,COc1ccc2c(c1)c(CC(=O)Nc1c(C)cccc1C)c(C)n2C(=O)c1ccc(Cl)cc1,active: 23.1 µM
20,Oc1c(Cl)cccc1Cc1cc(Cl)cc(Cl)c1O,inactive
21,CC1CCC(C(C)C)C(OC(=O)Cn2c(COc3ccccc3)[n+](C)c3ccccc32)C1 (configuration not stated),"inconclusive: 23.1 µM [falling, single point]"
22,CN(C)c1ccc(C=C2C=CC=C2)cc1,"inconclusive: 11.6 µM [activator, partial curve]"
23,CCN1/C(=C\C=C\C2=[N+](CC)c3ccccc3C2(C)C)C(C)(C)c2ccccc21,active: 0.651 µM

row,SMILES,Potency
1,O=c1c2ccccc2nc(N2CCCC2)n1-c1ccc(Cl)cc1,inactive
2,O=[N+]([O-])c1ccc(N2CCOCC2)c2ccncc12,"inconclusive: 16.4 µM [falling, single point]"
3,Oc1ccc(/C=N/NP(=S)(c2ccccc2)c2ccccc2)cc1O,inactive
4,COc1ccc(CNCCc2ccc3c(c2)OCO3)cc1Br,inactive
5,CC(C)c1ccc(N=Nc2c(O)[nH]c(=O)[nH]c2=O)cc1,inactive
6,CCN(CC)C(=O)Oc1ccc(NC(=O)N2CCOCC2)cc1,inactive
7,COc1cccc(NC(=O)CCc2nc(-c3ccc(C(C)(C)C)cc3)no2)c1,active: 0.259 µM
8,O=C(Oc1ccc([N+](=O)[O-])cc1)N1CCC(N2CCCCC2)CC1,"inconclusive: 29.1 µM [activator, single point]"
9,COC(=O)C1=C(c2ccc(-c3ccccc3)c(F)c2)C[C@@H]2CC[C@H]1N2C(=O)NCCc1ccccc1,"inconclusive: 20.6 µM [falling, single point]"
10,CCCOP(=O)(OCCC)c1nc(-c2ccccc2)oc1NCc1ccccc1,active: 18.4 µM
11,CC(=O)OCC12CC(OC(=O)CC(C)C)C(C)=CC1OC1C(O)C(OC(C)=O)C2(C)C12CO2 (configuration not stated),active: 0.0206 µM
12,N#CC1(c2ccccc2)CCN(C2CC(=O)N(c3ccc4c(c3)OCO4)C2=O)CC1 (configuration not stated),inactive
13,COc1ccccc1N1CCN(Cc2cc(C)c(C)cc2O)CC1,"inconclusive: 18.4 µM [falling, single point]"
14,C[C@H](O)[C@H]1CC[C@H]2[C@@H]3CCC4=CC(=O)CC[C@]4(C)[C@H]3CC[C@]12C,"inconclusive: 20.6 µM [falling, single point]"
15,CN(C)C(=O)Oc1ccc2c(c1)O/C(=C\c1ccc(Cl)cc1)C2=O,"inconclusive: 11.6 µM [activator, partial curve]"
16,Cc1ccc(S(=O)(=O)CC(=O)c2cc(C)c(OC(=O)N(C)C)c(C)c2)cc1,"inconclusive: 2.59 µM [falling, full curve]"
17,CC1(C)CN=C(Nc2nc3ccccc3s2)S1,"inconclusive: 6.51 µM [activator, partial curve]"
18,CCN(CC)S(=O)(=O)c1cc(NC(=O)C(C)N2CC=C(c3ccccc3)CC2)ccc1C (configuration not stated),"inconclusive: 18.4 µM [falling, single point]"
19,O=C(N=Nc1c(O)[nH]c(=O)[nH]c1=O)C1COc2cc3ccccc3cc2O1 (configuration not stated),"inconclusive: 16.4 µM [falling, single point]"
20,Cc1ccc(NC(=O)C2CCCN(c3ncnc4onc(C)c34)C2)c(Cl)c1 (configuration not stated),active: 25.9 µM
21,CCOC(=O)C1=C(C)c2ccccc2OC1(C(=O)OCC)c1ccccc1 (configuration not stated),"inconclusive: 29.1 µM [falling, single point]"
22,N#CC1=C(N)Oc2n[nH]c(-c3ccccc3)c2C1c1cccc(OC(=O)N2CCOCC2)c1 (configuration not stated),"inconclusive: 23.1 µM [activator, single point]"
23,Cc1ccc(Cn2c(=O)n(CCCCC(=O)NCc3ccccc3Cl)c(=O)c3ccccc32)cc1,"inconclusive: 18.4 µM [falling, single point]"

row,SMILES,Potency
1,CCN(c1ccccc1)S(=O)(=O)c1ccc(NC(=O)c2cc(=O)c3ccccc3o2)cc1,"inconclusive: 0.58 µM [falling, full curve]"
2,O=C(Nc1cccc(C(F)(F)F)c1)c1cccn(Cc2ccc3c(c2)OC(F)(F)O3)c1=O,"inconclusive: 23.1 µM [falling, single point]"
3,Oc1cc2c(cc1CN1CCN(c3ccccc3)CC1)CCC2,"inconclusive: 16.4 µM [falling, single point]"
4,COC(=O)C1=C(c2cccc(OCc3ccccc3)c2)C[C@@H]2CC[C@H]1N2C(=O)NCc1cccc(C(F)(F)F)c1,"inconclusive: 23.1 µM [falling, single point]"
5,COc1ccc(NC(=O)N(C)C[C@H]2Oc3c(NS(=O)(=O)c4ccc(F)cc4)cccc3C(=O)N([C@H](C)CO)C[C@@H]2C)cc1,"inconclusive: 20.6 µM [activator, single point]"
6,CCN1CCN(c2cc(N3CCCC3)c(F)cc2[N+](=O)[O-])CC1,inactive
7,O=C(Nc1ccc(OC(=O)N2CCCCC2)cc1)N1CCOCC1,active: 9.2 µM
8,CC(C)(C)c1ccc(O)c(N=Cc2c(O)ccc3ccccc23)c1,"inconclusive: 29.1 µM [falling, single point]"
9,Cc1ccc(C(C)C)c(OCCn2c(=O)oc3ccccc32)c1,"inconclusive: 29.1 µM [falling, single point]"
10,CCC/C(=N\O)c1c[nH]c2ccccc12,"inconclusive: 25.9 µM [activator, single point]"
11,CC1(O)CCC2C3CCC4=CC(=O)CCC4=C3C=CC21C (configuration not stated),"inconclusive: 16.4 µM [falling, partial curve, poor fit]"
12,COC(=O)C1=C(c2cc3ccccc3s2)C[C@@H]2CC[C@H]1N2C(=O)N1CCC(C)CC1,active: 25.9 µM
13,CCCc1[nH]nc2c1C1(C(=O)N(CC(N)=O)c3ccccc31)C(C(=O)OC)=C(N)O2 (configuration not stated),"inconclusive: 23.1 µM [activator, single point]"
14,CCOc1ccc(CN2CCCC(C(=O)c3ccccc3OC)C2)cc1 (configuration not stated),"inconclusive: 36.6 µM [falling, partial curve, poor fit]"
15,O=S1(=O)N(Cc2ccccc2)CCCN1Cc1ccc(F)cc1Cl,"inconclusive: 2.06 µM [falling, partial curve, poor fit]"
16,Cc1c(C(=O)c2cccc3ccccc23)c2cccc3c2n1[C@H](CN1CCOCC1)CO3,"inconclusive: 29.1 µM [falling, single point]"
17,Cc1cccc(Cn2cc(C=O)c3ccccc32)c1,"inconclusive: 5.17 µM [falling, partial curve, poor fit]"
18,CC1=CC(O)C(O)C2(C)C1CC1OC(=O)CC3C(C)C(O)C(=O)C2C13CO (configuration not stated),active: 2.06 µM
19,Cc1ccccc1C(=O)Nc1sc2c(c1C(=O)O)CCC(C(C)(C)C)C2 (configuration not stated),active: 3.66 µM
20,CC(C)c1ccc(Cc2cn3cc(-c4cc5ccccc5oc4=O)nc3s2)cc1,"inconclusive: 1.16 µM [activator, full curve]"
21,O=C(COc1ccccc1Cl)N1CCCC(N2CCN(c3ccc(F)cc3)CC2)C1 (configuration not stated),inactive

# Part of the list above, with tabs:
row	SMILES	Potency
6	CN1CCN(c2ccc([N+](=O)[O-])c(Sc3nncn3C)c2)CC1	inconclusive: 5.17 µM [falling, full curve, poor fit]
7	CCC1(C)OC(c2ccccc2)=C/C(=C/C=C2C(=O)NC(=O)NC2=O)O1 (configuration not stated)	inconclusive: 18.4 µM [falling, single point]
8	COc1ccc(CCNC(=O)COC(=O)Cc2ccccc2)cc1	inactive
